Results taken from publication doi:10.1101/2022.04.01.486681.
Results are given in words; binding and its absence hold for the method and conditions named. Some binding calls cover weakened binding; strength is not graded here.

Columns and labels:
[1] = target: T1, PAD4 (Phytoalexin Deficient 4) (Arabidopsis) (UniProt Q9S745); assay: cryo-EM structure
T1 sequence: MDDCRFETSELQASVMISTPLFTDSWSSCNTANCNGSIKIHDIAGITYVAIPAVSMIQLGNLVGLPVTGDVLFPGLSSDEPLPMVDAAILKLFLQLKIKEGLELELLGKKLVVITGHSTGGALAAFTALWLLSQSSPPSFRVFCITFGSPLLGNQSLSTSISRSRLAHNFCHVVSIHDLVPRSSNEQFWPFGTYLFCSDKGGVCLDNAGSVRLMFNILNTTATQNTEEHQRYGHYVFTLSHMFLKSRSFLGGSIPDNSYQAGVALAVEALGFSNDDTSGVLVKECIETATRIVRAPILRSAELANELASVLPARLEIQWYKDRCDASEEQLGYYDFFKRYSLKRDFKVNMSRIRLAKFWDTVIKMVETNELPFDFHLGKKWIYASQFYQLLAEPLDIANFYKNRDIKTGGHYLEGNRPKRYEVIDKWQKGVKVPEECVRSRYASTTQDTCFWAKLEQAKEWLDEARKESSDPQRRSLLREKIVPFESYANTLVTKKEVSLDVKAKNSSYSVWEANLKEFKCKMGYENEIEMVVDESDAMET

[2] = target: T1, PAD4 (Phytoalexin Deficient 4) (Arabidopsis); assay: co-purification
[3] = target: T1, PAD4 (Phytoalexin Deficient 4) (Arabidopsis); assay: crystal structure

Measured: binding

B1: EDS1 (Enhanced Disease Susceptibility 1) (protein, UniProt Q9XF23 1-623)
chain: MAFEALTGINGDLITRSWSASKQAYLTERYHKEEAGAVVIFAFQPSFSEKDFFDPDNKSSFGEIKLNRVQFPCMRKIGKGDVATVNEAFLKNLEAVIDPRTSFQASVEMAVRSRKQIVFTGHSSGGATAILATVWYLEKYFIRNPNVYLEPRCVTFGAPLVGDSIFSHALGREKWSRFFVNFVTRFDIVPRITLARKASVEETLPHVLAQLDPRNSSVQESEQRITEFYTSVMRDTSTVANQAVCELTGSAEAILETLSSFLELSPYRPAGTFVFSTEKRLVAVNNSDAILQMLFYTCQASDEQEWSLIPFRSIRDHHSYEELVQSMGMKLFNHLDGENSIESSLNDLGVSTRGRQYVQAALEEEKKRVENQKKIIQVIQQERFLKKLAWIEDEYKPKCQAHKNGYYDSFKVSNEENDFKANVKRAELAGVFDEVLGLLKKCQLPDEFEGDIDWIKLATRYRRLVEPLDIANYHRHLKNEDTGPYMKRGRPTRYIYAQRGYEHHILKPNGMIAEDVFWNKVNGLNLGLQLEEIQETLKNSGSECGSCFWAEVEELKGKPYEEVEVRVKTLEGMLREWITAGEVDEKEIFLEGSTFRKWWITLPKNHKSHSPLRDYMMDEITDT
binds: all assays above
